PubChem BioAssay AID602196, INSERM – 2012
Shown is a random part of about 23,000 reagents. 455 of all reagents (2%) count as active. 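Active includes both protection and sensitisation; some change values fall well beyond the stated -50 to +50 range.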 Entries without a mark were called inactive. The numbers tell different reagents against one gene apart. Not all columns of the deposit are shown. Not given: the amount of reagent.

Screen: 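Modifiers of cisplatin sensitivity in A549 cells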
Cells: human A549 lung cancer cells
Reagent: siRNA pair against human genes
Duration: 48 h transfection before cisplatin; time from cisplatin to read-out not stated
Treatment: cisplatin at a dose killing half of control-siRNA cells; exact dose and duration not given
Read-out: 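Cisplatin cell death as a shift from the 50% death seen with control siRNA; siRNAs toxic or growth-blocking alone scored 0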
Scale: two-siRNA summed score (-2 to +2): higher = both siRNAs protect from cisplatin killing; -2 means both sensitise; mean protection from cisplatin (shift in death) and protection from cisplatin (shift in death), siRNA C: higher = protection from cisplatin killing
Rule for the call: 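Each siRNA scores 0 if harmful alone by LDH or WST-1, otherwise +1 if it reduces and -1 if it increases cisplatin killing; a gene is active when both siRNAs agree (sum +2 or -2)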
Meaning of the calls: active = both siRNAs shift cisplatin killing the same way; inactive = no consistent shift, or siRNA harmful alone

Target gene	reagent no.	two-siRNA summed score (-2 to +2)	mean protection from cisplatin (shift in death) (%)	protection from cisplatin (shift in death), siRNA C (%)
LOC440142	1	0	8.6	14
NID1 (nidogen 1)	1	0	-3.4	-4.9
CARD16 (caspase recruitment domain family member 16)	1	0	6.2	6.6
CARD16 (caspase recruitment domain family member 16)	2	0	7.3	8.8
FCGBP (Fc gamma binding protein)	1	2 (active)	17.5	15.9
LOC441036	1	0	15.1	23.4
CASD1 (CAS1 domain sialic acid O acetyltransferase 1)	1	0	3.2	2.3
LOC387746	1	0	8.4	7.3
C15orf32 (chromosome 15 putative open reading frame 32)	1	0	5.7	9
SYCN (syncollin)	1	0	-8.7	-4.3
LOC340571	1	0	-10.1	-5.8
SERPINI1 (serpin family I member 1)	1	0	6.5	-10.7
EPRS1 (glutamyl-prolyl-tRNA synthetase 1)	1	0	7.8	4.1
LOC440133	1	0	15	20.8
SF3B1 (splicing factor 3b subunit 1)	1	0	15.4	27.7
RABIF (RAB interacting factor)	1	0	-6.8	-10
MGAT2	1	0	-1	4.2
MGAT2	2	0	7.4	11.6
MRGPRX3 (MAS related GPR family member X3)	1	0	6.9	8.4
RNF122 (ring finger protein 122)	1	1	-1.7	-20
STAT6 (signal transducer and activator of transcription 6)	1	-1	-18.7	-35.9
METTL9 (methyltransferase 9, His-X-His N1(pi)-histidine)	1	-1	-5.5	2.9
FAM180A (family with sequence similarity 180 member A)	1	0	-3.3	1.2
H2AC18 (H2A clustered histone 18)	1	0	5.9	-0.9
CNKSR2 (connector enhancer of kinase suppressor of Ras 2)	1	0	3.2	4.2
CLU (clusterin)	1	0	0.9	-4.8
TTC9C (tetratricopeptide repeat domain 9C)	1	0	10.7	9.7
OXGR1 (oxoglutarate receptor 1)	1	-1	-10.3	-21.1
NUP107 (nucleoporin 107)	1	0	2	-3.7
SLC25A25	1	0	2.1	-12.4
DNAJC5 (DnaJ heat shock protein family (Hsp40) member C5)	1	0	-1.4	6.1
OR2T29 (olfactory receptor family 2 subfamily T member 29)	1	0	13.7	22.2
CSMD3 (CUB and Sushi multiple domains 3)	1	0	5.8	15.8
KCND2 (potassium voltage-gated channel subfamily D member 2)	1	0	5.4	9
SLC33A1	1	-1	-6.5	-12.2
LOC388581	1	1	2.4	-9.7
NONO (non-POU domain containing octamer binding)	1	-1	-15.2	-27.2
TNFRSF11B (TNF receptor superfamily member 11b)	1	1	13.7	8.5

Active calls, of those listed so far:
Target gene	reagent no.	two-siRNA summed score (-2 to +2)	mean protection from cisplatin (shift in death) (%)	protection from cisplatin (shift in death), siRNA C (%)
FCGBP (Fc gamma binding protein)	1	2 (active)	17.5	15.9

Further reagents follow.
Target gene	reagent no.	two-siRNA summed score (-2 to +2)	mean protection from cisplatin (shift in death) (%)	protection from cisplatin (shift in death), siRNA C (%)
DMAC2L (distal membrane arm assembly component 2 like)	1	0	12.2	11.8
CALM3 (calmodulin 3)	1	-1	1	13.4
UBA2 (ubiquitin like modifier activating enzyme 2)	1	-1	-5.6	0.1
GOLGA3 (golgin A3)	1	0	2	7.1
HINT1 (histidine triad nucleotide binding protein 1)	1	0	0.4	7.7
GNB5 (G protein subunit beta 5)	1	-1	-11.5	3.3
ANKRD54 (ankyrin repeat domain 54)	1	0	8.4	18.3
LINC03086 (long independently transcribed non-coding RNA 3086)	1	0	12.5	24.6
HOXC10 (homeobox C10)	1	0	-0.1	2.1
MRPL54 (mitochondrial ribosomal protein L54)	1	0	3.5	0.8
MGC40489	1	0	6.5	1
FBXL19-AS1 (FBXL19 antisense RNA 1)	1	-1	-9.1	6.2
OR8U3 (olfactory receptor family 8 subfamily U member 3)	1	0	7.1	7
C22orf23 (chromosome 22 open reading frame 23)	1	0	9.2	14.8
NPFFR1 (neuropeptide FF receptor 1)	1	-1	1.2	-9.7
ZNF765 (zinc finger protein 765)	1	-1	-1.4	10
EEF1G (eukaryotic translation elongation factor 1 gamma)	1	1	10.4	0.6
OVCH1 (ovochymase 1)	1	1	30.2	32.9
CXCL6 (C-X-C motif chemokine ligand 6)	1	0	-8	-8.2
OTUD1 (OTU deubiquitinase 1)	1	1	5.3	0.8
FURIN (furin, paired basic amino acid cleaving enzyme)	1	-1	-8.6	-23.7
KIAA1937	1	0	14	13
CSH1 (chorionic somatomammotropin hormone 1)	1	-1	-5.4	10.5
IVL (involucrin)	1	1	14.8	31.4
LOC388358	1	1	16.6	23.7
C15orf40 (chromosome 15 open reading frame 40)	1	0	8.7	6.2
SLIT1 (slit guidance ligand 1)	1	1	2	28.2
G0S2 (G0/G1 switch 2)	1	-1	-8.7	-2.6
KCNK3 (potassium two pore domain channel subfamily K member 3)	1	0	-6	-9.2
IFT172 (intraflagellar transport 172)	1	0	2.3	8.8
LOC442585	1	0	9	-1.4
PRTN3 (proteinase 3)	1	0	-10.9	-22
TFCP2 (transcription factor CP2)	1	0	2.5	0.1
PMS1 (PMS1 homolog 1, mismatch repair system component)	1	0	-18.5	-30.7
LOC440249	1	0	9.8	1.5
